## Microarray screen: hit calls

Source: the ROBIN nucleic acid binder screens (doi:10.1002/anie.202211358).

Targets, with sequences 5′ to 3′:
PreQ1: PreQ1 riboswitch RNA pseudoknot, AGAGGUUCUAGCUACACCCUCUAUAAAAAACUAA. From B. subtilis. Hit rate about 0.7% of about 24,000 compounds.
SAM-II: SAM-II riboswitch RNA pseudoknot, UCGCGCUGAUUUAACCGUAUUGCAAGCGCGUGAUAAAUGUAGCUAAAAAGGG. Hit rate about 1% of about 21,000 compounds.
TPP: TPP riboswitch RNA three-way junction, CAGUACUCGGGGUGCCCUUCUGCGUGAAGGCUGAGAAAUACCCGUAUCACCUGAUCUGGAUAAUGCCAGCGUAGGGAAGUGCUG. Hit rate about 0.7% of about 24,000 compounds.

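Each compound is printed as two spots on a slide made to bind it covalently, so it has no test concentration; the read-out is fluorescence of the bound, labelled oligonucleotide. For the PreQ1, TPP and SAM-II riboswitches the laboratory earlier reported (doi:10.1038/s41467-019-09493-3) 1 µM RNA, 2 h, and a rule that included a mean Z-score above 3 (spot signal-to-noise against the whole library), a score well above that on a control array, and duplicate spots agreeing (coefficient of variation under 100). The data file gives only the calls; its cut-offs may differ, and compounds hitting several targets are kept. The calls come from the array alone, and fixing a compound to the slide can hide its binding.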
Key: hit = hit, no hit = tested without a hit.
Compounds were drawn at random from those tested, without regard to their results.
A dash means that no call is listed here.

compound | PreQ1 | SAM-II | TPP
CCCC1=C(C(=O)OCC)C2(C(=O)Nc3ccccc32)C(C(=O)OCC)=C(N)O1 (centres undefined) | no hit | no hit | no hit
O=C(NCCn1cc(C2CCCNC2)nn1)c1ccc(F)cc1 (centres undefined) | no hit | no hit | no hit
Nc1ccc(Br)cc1-c1ccccc1 | no hit | no hit | no hit
NC1=C(c2nc(-c3ccccc3)cs2)C(=O)CN1c1ccc2c(c1)OCCO2 | no hit | - | no hit
CN(C)CC1C2CCC(C2)C1O (centres undefined) | no hit | no hit | no hit
CCOc1ccccc1CCNC(=O)[C@@H]1C[C@@H](N)CN1 | no hit | no hit | no hit
Cc1ccc(Cl)c(NC(=O)NCC(O)CN2CCCC2)c1 (centres undefined) | no hit | no hit | no hit
COc1ccc(C(=O)c2sc3nc4c(c(C(F)F)c3c2N)CCCC4)cc1 | no hit | no hit | no hit
Nc1cccc(C2=CSC3=NCCN23)c1 | no hit | hit | hit
Cc1ccccc1-c1ccccc1C(=O)N1CC[C@H](CO)[C@@H](O)C1 | no hit | no hit | no hit
COc1ccc(C=CC(=O)Nc2ccccc2C(=O)O)cc1OC | no hit | no hit | no hit
CC(N)Cc1ccc(N(C)C)cc1 (centres undefined) | no hit | no hit | no hit
CC(C)C[C@H](NC(=O)CNC(=O)c1cc(Cl)ccc1Cl)B1OC(=O)CC(CC(=O)O)(C(=O)O)O1 (some centres undefined) | no hit | no hit | no hit
CCCCCC(C)n1nc(O)cc1N (centres undefined) | no hit | - | no hit
N[C@H](C(=O)N1CC(Oc2ccccc2Cl)C1)C1CCCCC1 | no hit | no hit | no hit
Cc1ccc(Nc2c(-c3ccccn3)nc3cccc(C)n23)cc1 | no hit | no hit | no hit
CN(C)C1(CNCC(=O)Nc2cnccn2)CCSC1 (centres undefined) | no hit | no hit | no hit
COc1cc2c(cc1-c1cn(CCc3nnc(N)s3)nn1)CCC2 | no hit | no hit | no hit
CN1C(=O)NC2(CCNCC2)C1=O.Cl | no hit | no hit | no hit
Cc1cc(N(CCO)CCO)n2nc(Cc3ccc(Cl)cc3)nc2n1 | no hit | - | no hit
CCOC(=O)c1cnc2c(OC)cccc2c1Nc1ccc(C)cc1Br | no hit | no hit | no hit
COCCOC1CCN(C(C(=O)O)c2ccc(CO)cc2)CC1 (centres undefined) | no hit | no hit | no hit
CCNc1ncc(C(=O)N[C@@H](C)[C@H](O)c2ccccc2)cn1 | no hit | no hit | no hit
Cc1ccc(Nc2nc(-c3ccc(S(=O)(=O)N4CCOCC4)cc3)cs2)cc1C | no hit | no hit | no hit
O=C(NCC(O)c1ccccc1)c1cc(=O)[nH]c2ccccc12 (centres undefined) | no hit | no hit | no hit
Cc1nn(C(C)C)c(C)c1NC(=O)N(CCO)[C@@H]1CS(=O)(=O)C[C@H]1O | no hit | no hit | no hit
O=C([C@H]1Cc2ccccc2CN1)N1CCc2[nH]cnc2C1 | no hit | no hit | no hit
Nc1c(C(=O)c2ccccc2)sc2nc3c(c(-c4ccncc4)c12)CCCC3 | no hit | no hit | no hit
Cc1nc2sccn2c1-c1csc(Nc2ccc(N(C)C)cc2)n1 | no hit | no hit | no hit
CN(Cc1csc(-c2ccccc2)n1)C(=O)[C@@H]1C[C@H](N)CN1C | no hit | no hit | no hit
CNCCN1C(=O)CC[C@H]2CN(C(=O)C3CCOCC3)CC[C@H]21 | no hit | no hit | no hit
CC(C)CCN1CC(=O)C(c2nc(-c3ccccc3)cs2)=C1N | no hit | - | no hit
Nc1c(C(=O)NCc2ccccc2Cl)nnn1Cc1ccc(Br)cc1 | no hit | no hit | no hit
CCCCCCCNC1CC(=O)N(c2ccc(Br)cc2)C1=O (centres undefined) | no hit | no hit | no hit
COc1cccc(CNc2ccc3c(c2)nc(C)n3C)c1OC | no hit | no hit | no hit
CCN(CC)C(=O)c1ccc(C(O)C(Cl)(Cl)Cl)o1 (centres undefined) | no hit | no hit | no hit
Cc1cc(N[C@@H]2c3ccccc3C[C@@H]2O)n2nc(C)c(C)c2n1 | no hit | no hit | no hit
Cc1cc(C(=O)NCc2cc3n(n2)CCNC3)c(-c2ccccc2)o1 | no hit | no hit | no hit
COCc1c(C(=O)NCc2ccc(CN)cc2)noc1C | no hit | no hit | no hit
CC1(C)CC(=O)C2=C(C1)N(c1ccccc1)C(N)=C(C#N)C2c1ccsc1 (centres undefined) | no hit | no hit | no hit
N#Cc1ccc(N2CCN(CC3CCCCC3)C(CCO)C2)nc1 (centres undefined) | no hit | no hit | no hit
Cc1cc2c(c(C#N)c1C)N=CNC2C (centres undefined) | no hit | no hit | no hit
COc1cc(=O)n(C)c2c(OCC(O)C(C)(C)O)cccc12 (centres undefined) | no hit | no hit | no hit
CCC/C(C)=C/c1ccc(CC)cn1 | no hit | no hit | no hit
CCC(C)Nc1nc(N(C)C)nc(-n2cnc(SCc3ccccc3)n2)n1 (centres undefined) | no hit | - | no hit
CC(C)(C)c1ccc(S(=O)(=O)N2CCC(CN)CC2)cc1 | no hit | - | no hit
CSCc1nc(CCn2ccnc2-c2cc3n(n2)CCNC3)cs1 | no hit | no hit | no hit
COc1ccc(NCCN2C(=O)C3CC=C(Cl)CC3C2=O)cc1 (centres undefined) | no hit | no hit | no hit
Cc1ccc2nc(CNCCCC3CCOC3)cc(O)c2c1 (centres undefined) | no hit | no hit | no hit
CCOC(=O)C1CCN(c2c(NC(C)c3ccccc3)c(=O)c2=O)CC1 (centres undefined) | no hit | no hit | no hit
CC(C)(C)c1ccc(-c2nc(NCc3cccnc3)c3ccccc3n2)cc1 | no hit | no hit | no hit
COc1ccc(-c2cnc3cc(C)nn3c2N)cc1 | no hit | no hit | no hit
COC(=O)C1=C(C)OC(N)=C(C#N)C12C(=O)N(C)c1ccc(Br)cc12 (centres undefined) | no hit | no hit | no hit

The last 7 entries again:

compound,PreQ1,SAM-II,TPP
CSCc1nc(CCn2ccnc2-c2cc3n(n2)CCNC3)cs1,no hit,no hit,no hit
COc1ccc(NCCN2C(=O)C3CC=C(Cl)CC3C2=O)cc1 (centres undefined),no hit,no hit,no hit
Cc1ccc2nc(CNCCCC3CCOC3)cc(O)c2c1 (centres undefined),no hit,no hit,no hit
CCOC(=O)C1CCN(c2c(NC(C)c3ccccc3)c(=O)c2=O)CC1 (centres undefined),no hit,no hit,no hit
CC(C)(C)c1ccc(-c2nc(NCc3cccnc3)c3ccccc3n2)cc1,no hit,no hit,no hit
COc1ccc(-c2cnc3cc(C)nn3c2N)cc1,no hit,no hit,no hit
COC(=O)C1=C(C)OC(N)=C(C#N)C12C(=O)N(C)c1ccc(Br)cc12 (centres undefined),no hit,no hit,no hit